# Results reported in PubChem BioAssay (NCATS).
# Inconclusive results, whose numbers are uncertain, are shown with a selection of clear calls. Potencies of inconclusive entries are doubtful fits and often do not repeat. Calls of active or inactive are those of the source. Calls follow the shape of the dose curve; as a rule, active = well fitted cell-killing curve with a large enough effect; inconclusive = small, poorly fitted or top-dose-only effect, or effect the other way; inactive = no such curve, though single readings can be large or run the other way.
# Test: Quantitative High-Throughput drug screen in 47 multiple myeloma cell lines against the NCATS MIPE library collection: Delta47_JCRB cell viability assay (AID 1918925; also: nearly all actives have a fitted effect of over 45% in size)
# Details: Delta47 myeloma viability, CellTiter-Glo ATP, 48 h; series mostly up to 45.8 µM
# Excerpt: PI: Beverly A. Mock Ph.D.
# Laboratory of Cancer Biology and Genetics,
# Center for Cancer Research, National Cancer Institute,
# National Institute of Health, Bethesda, Maryland
# Drug resistance and disease progression are common in multiple myeloma (MM) patients, underscoring the need for new therapeutic combinations. […] We hypothesized that effective combinations would reduce MYC expression and enhance p16 activity. […] These preclinical data identify potentially useful drug combinations for evaluation in drug-resistant MM and reveal potential mechanisms of combined drug sensitivity.
# Described herein is the primary MIPE qHTS used to cherrypick compounds. Validated compounds were then further tested for potential synergistic activiy.
# [1] Peat TJ, Gaikwad SM, Dubois W, Gyabaah-Kessie N, Zhang S, Gorjifard S, Phyo Z, Andres M, Hughitt VK, Simpson RM, Miller MA, Girvin AT, Taylor A, Williams D, D'Antonio N, Zhang Y, Rajagopalan A, Flietner E, Wilson K, Zhang X, Shinn P, Klumpp-Thomas C, McKnight C, Itkin Z, Chen L, Kazandijian D, Zhang J, Michalowski AM, Simmons JK, Keats J, Thomas CJ, Mock BA. Drug combinations identified by high-throughput screening promote cell cycle transition and upregulate Smad pathways in myeloma. Cancer Lett. 2023 Aug 1;568:216284. doi: 10.1016/j.canlet.2023.216284. Epub 2023 Jun 24. PMID: 37356470; PMCID: PMC10408729.
# SEQUENCE No. (e.g., 1, 2, 3, etc.); […] (e.g., Cells, Incubation, Reagent, etc.); VALUE and DESCRIPTION.
# 1; Cells; 5 uL; white, solid bottom 1536-well Greiner assay plate.
# 2; Compounds; 23 nL; Kalypsis pin tool (Wako USA) equipped with a 1536-well pin head to transfer to the assay plates.
# 3; Incubation; 48 hours; 37C incubation.
# 4; Reagent;5uL; CellTiter Glo (Promega).
# 5; Detector; 425V; Luminescence; Viewlux PerkinElmer.
# NOTES (numbers refer to Sequence numbers above)
# 1. The cell-based screening methods employed in this study were like those previously published. Briefly, the corresponding myeloma cell lines were screened in 1,536-well plates with 500 cells, 5-uL per well for inhibition of cell viability (assessed by measuring ATP levels with CellTiterGlo).
# 2. NCATS MIPE 4.0 library of approved and investigational drugs were added using the Kalypsis pin tool. Wells treated with DMSO only for 100% viability and media only wells for 0% viability were used as controls.
# 3. The assay plates were covered and incubated for 48 hours in a 37C, 5% CO2 incubator with controlled humidity.
# 4. After 48 hours, CellTilter-GloTM luminescent substrate mix (Promega) reagent was added to the assay plate and plates we incubated for 5 min at room temperature.
# 5. Signal was measured as median relative luminescence units on a ViewLux (PerkinElmer) multiplate reader.
# [1] Heske CM, Davis MI, Baumgart JT, Wilson K, Gormally MV, Chen L, Zhang X, Ceribelli M, Duveau DY, Guha R, Ferrer M, Arnaldez FI, Ji J, Tran HL, Zhang Y, Mendoza A, Helman LJ, Thomas CJ. Matrix Screen Identifies Synergistic Combination of PARP Inhibitors and Nicotinamide Phosphoribosyltransferase (NAMPT) Inhibitors in Ewing Sarcoma. Clin Cancer Res. 2017 Dec 1;23(23):7301-7311. doi: 10.1158/1078-0432.CCR-17-1121. Epub 2017 Sep 12. PMID: 28899971; PMCID: PMC6636827.
# Potency is read from the fitted curve at half-maximal effect.
row,SMILES,Potency
1,CCc1cccc(CC)c1NC(=O)N1Cc2[nH]nc(NC(=O)c3ccc(N4CCN(C)CC4)cc3)c2C1,active: 5.9 µM
2,CS(=O)(=O)c1ccc(C(=O)Nc2ccc(Cl)c(-c3ccccn3)c2)c(Cl)c1,"inconclusive: 2.35 µM [cytotoxic, full curve]"
3,COc1cc2c(Oc3ccc4[nH]c(C)cc4c3F)ncnc2cc1OCCCN1CCCC1,active: 3.32 µM
4,C[C@@H]1C(=O)O[C@H]2CC34[C@H]5C[C@@H](C(C)(C)C)C36[C@H](OC(=O)[C@@H]6O)O[C@@]4(C(=O)O5)[C@]21O (stereo not given in full),"inconclusive: 0.105 µM [cytotoxic, full curve, poor fit]"
5,O=C(c1cc(Cc2n[nH]c(=O)c3ccccc23)ccc1F)N1CCN(C(=O)C2CC2)CC1,"inconclusive: 37.2 µM [cytotoxic, single point]"
6,O=C(Nc1cccc(C(F)(F)F)c1)Nc1cc(S(=O)(=O)NC2CC2)ccc1-c1ccsc1,"inconclusive: 11.8 µM [cytotoxic, partial curve, poor fit]"
7,CNc1nc(-c2ccc3c(N)n[nH]c3c2)cc(N2C[C@@H](C(=O)NC3CCCCC3)CC[C@@H]2C)n1,"inconclusive: 6.62 µM [cytotoxic, partial curve]"
8,C[N+](C)([O-])CCNc1ccc(NCC[N+](C)(C)[O-])c2c1C(=O)c1c(O)ccc(O)c1C2=O,"inconclusive: 20.9 µM [cytotoxic, partial curve, poor fit]"
9,CCC[C@H](Nc1nc(-c2ccc(NC(=O)NCC)c(OC)c2)ncc1C)c1cccnc1,"inconclusive: 0.0047 µM [cytotoxic, full curve]"
10,CC1(CN2CCC(n3c(=O)[nH]c4ccccc43)CC2)OCc2ccccc2-n2cccc21 (stereo not given),"inconclusive: 3.72 µM [cytotoxic, full curve, poor fit]"
11,COc1ccnc2[nH]cc(C(=O)C(=O)N3CCN(C(=O)c4ccccc4)C[C@@H]3C)c12,"inconclusive: 37.2 µM [cytotoxic, single point]"
12,NC(=O)c1cccc(N)c1,inactive
13,Nc1nc2c(c(=O)[nH]1)N(C=O)[C@H](CNc1ccc(C(=O)N[C@@H](CCC(=O)O)C(=O)O)cc1)CN2,inactive
14,c1ccc(CNc2nc(NCc3ccccc3)c3ccccc3n2)cc1,active: 7.43 µM
15,NCCCC(O)(P(=O)(O)O)P(=O)(O)O,inactive
16,COc1cc2c(Nc3ccc(Br)cc3F)ncnc2cc1OCC1CCN(C)CC1,"inconclusive: 7.43 µM [cytotoxic, full curve]"
17,O=C(Nc1ccc(Oc2ccnc3[nH]ccc23)c(F)c1)c1cccn(-c2ccc(F)cc2)c1=O,"inconclusive: 37.2 µM [cytotoxic, single point]"
18,CS(=O)(=O)c1ccc([C@@H](O)[C@@H](CO)NC(=O)C(Cl)Cl)cc1,"inconclusive: 20.9 µM [cytotoxic, partial curve]"
19,CN(CC=CC#CC(C)(C)C)Cc1cccc2ccccc12,inactive
20,C[C@@H](c1ncncc1F)[C@](O)(Cn1cncn1)c1ccc(F)cc1F,inactive

# Some of these compounds in order of length of the SMILES, low to high:
row,SMILES,Potency
2,CS(=O)(=O)c1ccc(C(=O)Nc2ccc(Cl)c(-c3ccccn3)c2)c(Cl)c1,"inconclusive: 2.35 µM [cytotoxic, full curve]"
11,COc1ccnc2[nH]cc(C(=O)C(=O)N3CCN(C(=O)c4ccccc4)C[C@@H]3C)c12,"inconclusive: 37.2 µM [cytotoxic, single point]"
4,C[C@@H]1C(=O)O[C@H]2CC34[C@H]5C[C@@H](C(C)(C)C)C36[C@H](OC(=O)[C@@H]6O)O[C@@]4(C(=O)O5)[C@]21O (stereo not given in full),"inconclusive: 0.105 µM [cytotoxic, full curve, poor fit]"

# Remaining list, next part:

row,SMILES,Potency
1,O=C(NCC1CN(c2ccc(N3CCOCC3=O)cc2)C(=O)O1)c1ccc(Cl)s1 (stereo not given),"inconclusive: 20.9 µM [cytotoxic, partial curve, poor fit]"
2,Cn1c(=O)c(-c2c(Cl)cccc2Cl)cc2cnc(Nc3cccc(C(=O)O)c3)nc21,inactive
3,CCN1CCN(Cc2ccc(-c3cc4c(N[C@H](C)c5ccccc5)ncnc4[nH]3)cc2)CC1,"inconclusive: 0.332 µM [cytotoxic, full curve, poor fit]"
4,CCC(C)(C)C(=O)O[C@H]1C[C@@H](C)C=C2C=C[C@H](C)[C@H](CC[C@@H]3C[C@@H](O)CC(=O)O3)[C@H]21,"inconclusive: 16.6 µM [cytotoxic, partial curve]"
5,O=C1Nc2ccc(I)cc2C1=Cc1cc(Br)c(O)c(Br)c1,"inconclusive: 16.6 µM [cytotoxic, partial curve, poor fit]"
6,CC1C(=O)OC2C(O)C34C5CC(C(C)(C)C)C36C(OC(=O)C6O)OC4(C(=O)O5)C12O (stereo not given),"inconclusive: 0.0023 µM [cytotoxic, full curve, poor fit]"
7,COc1ccccc1OCC(O)COC(N)=O (stereo not given),inactive
8,CC1(C)O[C@@H]2C[C@@H]3[C@H]4C[C@@H](F)C5=CC(=O)C=C[C@]5(C)[C@@]4(F)[C@@H](O)C[C@]3(C)[C@]2(C(=O)CO)O1,inactive
9,CCOC(=O)[C@H](CCc1ccccc1)N[C@@H](C)C(=O)N1CCCC1C(=O)O (stereo not given in full),inactive
10,Cn1cnc([N+](=O)[O-])c1Sc1ncnc2nc[nH]c12,"inconclusive: 18.7 µM [cytotoxic, partial curve]"
11,Cc1nnc(NS(=O)(=O)c2ccc(N)cc2)s1,"inconclusive: 9.35 µM [cytotoxic, partial curve, poor fit]"
12,Cc1ccc(NC(=O)c2cccc(N(C)C)c2)cc1NC(=O)c1ccc(O)cc1,"inconclusive: 37.2 µM [cytotoxic, single point]"
13,CCCCCCNC(=O)n1cc(F)c(=O)[nH]c1=O,"inconclusive: 16.6 µM [cytotoxic, partial curve, poor fit]"
14,NC(=O)c1noc([C@H](CCCC2CCCCC2)CC(=O)NO)n1,active: 9.35 µM
15,C[C@H](CCC(=O)O)[C@H]1CCC2C3C[C@H](O)[C@@H]4C[C@H](O)CC[C@]4(C)C3CC[C@@]21C (stereo not given in full),"inconclusive: 37.2 µM [cytotoxic, single point]"
16,CC(C)n1cnc2c(NCCc3ccc(O)cc3)nc(-c3csc4ccccc34)nc21,"inconclusive: 26.4 µM [cytotoxic, single point]"
17,O=C(CCCN1CCN(c2ccc(F)cc2)CC1)NC1c2ccccc2CSc2ccccc21 (stereo not given),active: 5.26 µM
18,CCN[C@H]1C[C@H](C)S(=O)(=O)c2sc(S(N)(=O)=O)cc21,inactive
19,CNNCc1ccc(C(=O)NC(C)C)cc1,"inconclusive: 0.0833 µM [rising, full curve, poor fit]"
20,CC[C@@H]1C(=O)N(C)c2cnc(Nc3ccc(C(=O)NC4CCN(C)CC4)cc3OC)nc2N1C1CCCC1,"inconclusive: 6.62 µM [cytotoxic, partial curve, poor fit]"
